# Values quoted from earlier work in patent publication US20070258961A1, “Cholesterol efflux and uses thereof” (priority 2002, published 2007).
# At least one compound was matched to its structure with a doubt left.
# System: CYP27
# Conditions: promoter studies; cited from earlier work
smiles,measurement,value
C[C@@H]1C[C@H]2[C@@H]3CCC4=CC(=O)C=C[C@]4(C)[C@@]3(F)[C@@H](O)C[C@]2(C)[C@@]1(O)C(=O)CO [dexamethasone],regulation of CYP27 expression,upregulated
